Data source: PubChem BioAssay AID686938 (Drosophila RNAi Screening Center, 2013)
Test: 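Fly genes required for calcium entry once internal stores are emptied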 (primary screen). Cells: Drosophila S2R+ cells. Reagent: long dsRNA against Drosophila genes, about 0.25 µg dsRNA per well, roughly 10,000 cells. Time to read-out: 5 days of knock-down before the calcium assay. Conditions: thapsigargin (SERCA pump blocker) to empty calcium stores; entry signal taken 4 min after adding it. Read-out: 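Duplicate raw fluo-4 intensities per well from a plate reader, at rest and four minutes after thapsigargin emptied calcium stores; entry-to-rest ratio filled for only some wells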. Reading the numbers: calcium entry signal: higher = stronger calcium signal after store depletion; entry to resting ratio: higher = more calcium entry relative to resting level; resting calcium signal: higher = higher resting calcium signal. Active means: 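Called when the plate z-score of the entry-to-rest ratio, mean of duplicates, falls below −3; wells with low overall dye signal (Fmax z below −2) or more than five off-targets excluded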. Calls: active = strongly reduced calcium entry; inactive = no strong reduction.
In all, the deposit lists about 23,000 reagents; below is an unselected part of those with a known target gene and a result. Over the whole deposit, 75 (0.33%) got an active call. 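Raw plate signals without normalisation; calls rest on plate z-scores that were not deposited; ratio present for only 364 wells.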 A number with no mark means an inactive call. Reagents against one gene are numbered here. A plus sign joins genes that one reagent is predicted to hit. Not stated in the record: the dose of the treatment.

Target gene | reagent no. | calcium entry signal, replicate 1 (fluorescence units) | calcium entry signal, replicate 2 (fluorescence units) | entry to resting ratio | resting calcium signal, replicate 1 (fluorescence units) | resting calcium signal, replicate 2 (fluorescence units)
CG11664 | 1 | 4.58e7 | 5.75e7 | 2 | 2.26e7 | 2.21e7
gd | 1 | 4.55e7 | 5.55e7 | – | 2.20e7 | 2.57e7
Hsp26 | 1 | 4.57e7 | 4.04e7 | – | 2.91e7 | 1.68e7
CG17350 | 1 | 6.47e7 | 5.47e7 | – | 3.04e7 | 2.42e7
Cngl | 1 | 1.79e7 | 2.34e7 | – | 8.91e6 | 9.84e6
Cngl | 2 | 2.55e7 | 3.00e7 | – | 1.33e7 | 1.51e7
Cngl | 3 | 1.77e7 | 2.31e7 | – | 1.14e7 | 1.18e7
wuc | 1 | 3.46e7 | 5.12e7 | – | 1.87e7 | 2.20e7
nemy | 1 | 3.77e7 | 5.49e7 | – | 1.77e7 | 2.55e7
nemy | 2 | 4.20e7 | 7.07e7 | – | 1.73e7 | 2.75e7
Kdm3 | 1 | 2.64e7 | 2.80e7 | – | 1.49e7 | 1.60e7
CG4962 | 1 | 3.09e7 | 5.66e7 | – | 1.62e7 | 1.84e7
ALiX | 1 | 3.26e7 | 4.70e7 | – | 1.68e7 | 1.99e7
ND-B15 | 1 | 3.54e7 | 4.12e7 | – | 1.70e7 | 1.75e7
kek4 | 1 | 5.03e7 | – | – | 2.54e7 | –
Cals | 1 | 3.91e7 | 4.27e7 | – | 1.79e7 | 1.94e7
Cals | 2 | 3.66e7 | 4.31e7 | – | 2.16e7 | 1.99e7
vih | 1 | 1.67e7 | 2.52e7 | – | 1.13e7 | 1.43e7
Or98a | 1 | 2.70e7 | 4.48e7 | – | 1.41e7 | 2.03e7
CG12307 | 1 | 3.63e7 | 4.19e7 | – | 1.66e7 | 1.71e7
Polr1A | 1 | 1.62e7 | 2.72e7 | – | 9.92e6 | 1.47e7
TotF | 1 | 2.29e7 | 3.96e7 | – | 1.13e7 | 1.62e7
CG5381 | 1 | 3.09e7 | 3.54e7 | – | 1.45e7 | 1.43e7
CG2065 | 1 | 4.24e7 | 4.45e7 | – | 2.41e7 | 1.69e7
CG2065 | 2 | 2.07e7 | 2.74e7 | – | 1.13e7 | 1.17e7
nsl1 | 1 | 2.43e7 (active) | 2.13e7 | – | 1.60e7 | 1.35e7
Spn28B | 1 | 3.69e7 | 5.80e7 | – | 1.95e7 | 2.47e7
CG34325 | 1 | 3.34e7 | 2.95e7 | – | 1.78e7 | 1.52e7
CG34325 | 2 | 3.55e7 | 3.59e7 | – | 1.78e7 | 1.61e7
nur | 1 | 4.95e7 | 3.52e7 | – | 2.57e7 | 1.61e7
Or49a | 1 | 3.51e7 | 4.16e7 | – | 1.75e7 | 2.07e7
fus | 1 | 4.74e7 | 4.99e7 | – | 2.60e7 | 2.04e7
fus | 2 | 3.27e7 | 2.66e7 | – | 1.36e7 | 1.26e7
CG12682 | 1 | 3.46e7 | 4.89e7 | – | 1.77e7 | 2.27e7
nom | 1 | 5.20e7 | 3.63e7 | – | 2.35e7 | 1.69e7
Pisd | 1 | 3.28e7 | 3.30e7 | – | 1.70e7 | 1.48e7
CG10734 | 1 | 4.50e7 | 4.02e7 | – | 2.08e7 | 1.93e7
beat-IIa | 1 | 3.54e7 | 6.32e7 | – | 1.77e7 | 8.44e7
beat-IIa | 2 | 3.80e7 | 6.79e7 | – | 1.87e7 | 8.50e7
CG13059 | 1 | 3.76e7 | 3.57e7 | – | 1.73e7 | 1.69e7
DAAM | 1 | 4.75e7 | 2.91e7 | – | 2.19e7 | 1.47e7
CG10352 | 1 | 2.99e7 | 3.62e7 | – | 1.57e7 | 1.64e7

Active calls (from the list above):
Target gene | reagent no. | calcium entry signal, replicate 1 (fluorescence units) | calcium entry signal, replicate 2 (fluorescence units) | entry to resting ratio | resting calcium signal, replicate 1 (fluorescence units) | resting calcium signal, replicate 2 (fluorescence units)
nsl1 | 1 | 2.43e7 (active) | 2.13e7 | – | 1.60e7 | 1.35e7

The list goes on.
Target gene | reagent no. | calcium entry signal, replicate 1 (fluorescence units) | calcium entry signal, replicate 2 (fluorescence units) | entry to resting ratio | resting calcium signal, replicate 1 (fluorescence units) | resting calcium signal, replicate 2 (fluorescence units)
CG17211 | 1 | 3.72e7 | 2.52e7 | – | 1.77e7 | 1.23e7
CG15071 | 1 | 5.40e7 | 6.12e7 | – | 2.47e7 | 3.05e7
Mob2 | 1 | 4.32e7 | 6.53e7 | – | 2.12e7 | 2.89e7
Mob2 | 2 | 4.78e7 | 5.52e7 | – | 2.45e7 | 2.30e7
Mob2 | 3 | 4.23e7 | 2.65e7 | – | 2.64e7 | 1.35e7
Mob2 | 4 | 4.21e7 | 4.08e7 | – | 1.92e7 | 1.64e7
CG34382 | 1 | 2.94e7 | 4.44e7 | – | 1.49e7 | 1.99e7
CG34382 | 2 | 3.14e7 | 4.07e7 | – | 1.65e7 | 1.83e7
CG34382 | 3 | 3.53e7 | 4.94e7 | – | 1.73e7 | 1.92e7
ArfGAP1 | 1 | 2.80e7 | 3.78e7 | – | 1.62e7 | 1.85e7
CR40282 | 1 | 2.97e7 | 3.79e7 | – | 1.65e7 | 1.67e7
Abi | 1 | 2.71e7 | 2.68e7 | – | 1.18e7 | 1.31e7
CG40485 | 1 | 3.72e7 | 3.00e7 | – | 2.02e7 | 1.60e7
cn | 1 | 2.97e7 | 4.33e7 | – | 1.50e7 | 1.84e7
CG15394 | 1 | 3.47e7 | 3.96e7 | – | 1.71e7 | 1.94e7
fs(2)ltoPP43 | 1 | 2.69e7 | 4.13e7 | – | 1.40e7 | 1.69e7
pre-mod(mdg4)-W + pre-mod(mdg4)-Y + mod(mdg4) + 3 more | 1 | 1.98e7 | 3.05e7 | – | 2.68e7 | 1.31e7
Moe | 1 | 3.26e7 | 3.34e7 | – | 1.53e7 | 1.58e7
pdm2 | 1 | 4.53e7 | 3.01e7 | – | 1.96e7 | 1.53e7
pdm2 | 2 | 5.27e7 | 3.24e7 | – | 2.26e7 | 1.63e7
pdm2 | 3 | 4.97e7 | 3.64e7 | – | 2.22e7 | 1.84e7
Bdbt | 1 | 2.79e7 | 3.40e7 | – | 6.68e7 | 1.52e7
Aos1 | 1 | 3.79e7 | 3.26e7 | – | 2.02e7 | 1.73e7
CG10062 | 1 | 3.04e7 | 2.53e7 | – | 1.41e7 | 1.30e7
CG10062 | 2 | 2.38e7 | 2.43e7 | – | 1.17e7 | 1.12e7
CG7536 | 1 | 3.26e7 | 3.87e7 | – | 1.66e7 | 1.87e7
nord | 1 | 3.49e7 | 4.06e7 | – | 1.83e7 | 1.83e7
nord | 2 | 3.73e7 | 4.19e7 | – | 1.94e7 | 2.08e7
fax | 1 | 3.46e7 | 3.91e7 | – | 1.68e7 | 2.55e7
Ran | 1 | 2.19e7 | 2.36e7 | – | 1.57e7 | 1.77e7
Syt4 | 1 | 4.24e7 | 4.21e7 | – | 2.10e7 | 2.12e7
Chchd3 | 1 | 2.36e7 | 4.26e7 | – | 1.32e7 | 2.15e7
MFS3 | 1 | 2.99e7 | 3.13e7 | – | 1.51e7 | 1.49e7
